Assay results taken from PubChem BioAssay AID540276 (National Center for Advancing Translational Sciences (NCATS), 2011).
About 5,400 (1.8%) of roughly 300,000 compounds were called active. The inconclusive results got no clear call from the source; some entries with a clear call stand among them for comparison. Calls follow the shape of the full dose curve; tested in HEK293 cells. Potencies beside an inconclusive call are fits to weak or partial responses and may not hold up.
% is scaled to controls: 0 for no effect and ±100 for the full control effect; potency is read from the fitted curve at half-maximal effect.

Assay: qHTS for inhibitors of binding or entry into cells for Marburg Virus
Settings: Marburg virus pseudotyped entry inhibition, cell reporter; activity change, negative = inhibition: at 37.8 µM (top of the series) unless noted
For CC(Sc1nnc2c(n1)C1CCC2(C)C1(C)C)C(=O)Nc1ccccc1 (stereo not given), the Potency was inconclusive: 11.2 µM [inhibitor, single point]. With COc1ccc(C)cc1NC(=O)c1[nH]c(C)c(C(C)=O)c1C the Potency was inconclusive: 6.51 µM [inhibitor, single point]. With CC(=O)c1cccc(NS(=O)(=O)N(C)C)c1 the Potency was inconclusive: 28.2 µM [activator, partial curve, poor fit]. With COc1c(C)cc(C(=O)C2CCCN(C(=O)c3ccc4cc[nH]c4c3)C2)cc1C (stereo not given) the “activity change, negative = inhibition” value was inactive: -26.6% [at 46.1 µM]. In the case of Cc1cccc(OCCCCn2c(C3CC(=O)N(c4ccccc4Cl)C3)nc3ccccc32)c1 (stereo not given), the Potency is reported as inconclusive: 35.5 µM [inhibitor, single point]. With Cc1nn2c(NCc3cccnc3)c3c(nc2c1-c1ccccc1)CCC3 the Potency was inconclusive: 6.31 µM [inhibitor, partial curve, poor fit]. In the case of CCOC(=O)c1c(C)[nH]c(C(=O)C(C)OC(=O)c2cccc(OCc3c(C)noc3C)c2)c1C (stereo not given), the Potency is reported as inconclusive: 11.2 µM [inhibitor, partial curve, poor fit]. For CCC1(C)Cc2ccccc2-c2nc[nH]c(=O)c21 (stereo not given), the Potency was inconclusive: 35.5 µM [inhibitor, single point]. For Cc1ccc2c(CC(=O)Nc3cccc(Cl)c3C)coc2c1, the Potency was inconclusive: 6.31 µM [activator, single point]. In the case of Cc1c(C(=O)OCC(=O)N(C)c2ccccc2)cccc1[N+](=O)[O-], the “activity change, negative = inhibition” value is reported as inactive: 20.6% [at 14.2 µM]. With Cc1cccc(NC(=O)c2cccc(C(=O)Nc3cccc(C)c3)n2)c1 the “activity change, negative = inhibition” value was inactive: -9.33% [at 46.1 µM]. For Cc1ccc(CNC(=O)CNC(=O)[C@@H]2Cc3ccccc3CN2C(=O)OC(C)(C)C)cc1, the Potency was inconclusive: 3.16 µM [inhibitor, single point]. With Cc1cc(NC(=O)COC(=O)c2c(C)noc2C)ccc1Br the Potency was inconclusive: 35.5 µM [inhibitor, single point]. With COc1ccc(CCNC(=O)Cc2nn(C)c(=O)c3ccccc23)cc1OC the Potency was inconclusive: 0.073 µM [inhibitor, full curve, poor fit]. In the case of CCOC(=O)C(Nc1ccc2ccccc2c1)C(=O)OCC, the “activity change, negative = inhibition” value is reported as inactive: 13.5%. In the case of CCc1ccc(NC(=O)C(=O)N/N=C(\C)CC(=O)Nc2ccccn2)cc1, the Potency is reported as inconclusive: 18.4 µM [activator, single point]. For COc1ccccc1C(=O)NC1CCN(C(=S)NCCc2ccccc2)CC1, the Potency was inconclusive: 35.5 µM [inhibitor, single point]. With Cc1cccc(NC(=O)c2cc([N+](=O)[O-])ccc2NCC2CCCO2)n1 (stereo not given) the Potency was inconclusive: 10 µM [inhibitor, partial curve, poor fit]. For CS(=O)(=O)Nc1ccccc1C(=O)Nc1cc(Cl)cc(Cl)c1, the Potency was inconclusive: 2.06 µM [inhibitor, partial curve, poor fit]. For Cc1cc(S(=O)(=O)N2CCCCC2CCNC(=O)C(=O)NC2CC2)ccc1F (stereo not given), the Potency was inconclusive: 6.31 µM [activator, single point]. For COc1cccc(N2C(=O)C3ON(c4ccccc4)C(c4cccs4)C3C2=O)c1 (stereo not given), the “activity change, negative = inhibition” value was inactive: 4.84%. With CCC(=O)Nc1ccc(C(=O)NNC(=O)Cc2ccccc2)cc1 the “activity change, negative = inhibition” value was inactive: 10.7%. With CN1CCN(c2ccccc2NC(=O)c2ccc(-c3ccccc3)cc2)CC1 the Potency was inconclusive: 35.5 µM [inhibitor, single point]. With CCOc1cccc(C(=O)NC2CCCCC2)c1 the “activity change, negative = inhibition” value was inactive: 2.89%. In the case of COC(CNC(=O)c1cn(C)c2ccc(S(=O)(=O)N(C)C3CCCCC3)cc2c1=O)OC, the Potency is reported as inconclusive: 6.31 µM [inhibitor, partial curve, poor fit]. In the case of COc1cccc(OC)c1C(=O)Nc1nc(N)n(-c2ccccc2)n1, the Potency is reported as inconclusive: 0.326 µM [inhibitor, partial curve, poor fit]. With CC1=C(C(=O)Nc2ccc(Cl)cc2)C(c2ccccc2C)n2ncc(C(=O)Nc3ccc(C)cc3)c2N1 (stereo not given) the Potency was active: 5.62 µM. In the case of CSc1nnc2c(n1)OC1(Nc3ccccc3-2)C(=O)Nc2ccccc21 (stereo not given), the “activity change, negative = inhibition” value is reported as inactive: -1.84%. With O=C(O)c1cc2c(o1)CCC/C2=N\O the “activity change, negative = inhibition” value was inactive: 1.34%. With CCCCC[n+]1ccn(-c2nc3ccccc3nc2[N-]S(=O)(=O)c2ccc(C)cc2)c1 the “activity change, negative = inhibition” value was inactive: -12.5%. With C=CCC1(N(C(C)=O)c2ccccc2)CCCCC1 the Potency was inconclusive: 0.73 µM [activator, full curve, poor fit]. In the case of COC(=O)C1CCN(C(=O)COC(=O)CC(NC(C)=O)c2ccccc2)CC1 (stereo not given), the activity change, negative = inhibition is reported as inconclusive: 19.5% [activator] [at 46.1 µM]. For CC(=O)Nc1ccc(NC(=O)C(C)OC(=O)CCc2c[nH]c3ccccc23)cc1 (stereo not given), the Potency was inconclusive: 0.316 µM [inhibitor, partial curve, poor fit]. In the case of NC(Cc1ccc2nsnc2c1)C(=O)O (stereo not given), the “activity change, negative = inhibition” value is reported as inactive: 7.18%. With c1cc2[nH]snc2c2nc(C3CC3)nc12 the “activity change, negative = inhibition” value was inactive: -12.8%. For COc1cc2c(cc1OC)C(c1ccccc1)=NCC2, the Potency was inconclusive: 0.1 µM [inhibitor, full curve, poor fit]. In the case of O=C(/C=C/c1ccc(Cl)cc1Cl)NCCN1CCOCC1, the Potency is reported as inconclusive: 28.2 µM [inhibitor, single point]. In the case of CCc1nonc1NC(=O)c1oc2ccc(F)cc2c1C, the “activity change, negative = inhibition” value is reported as inactive: 14.3% [at 46.1 µM]. For Cc1ccc(NC(=S)NC(=O)C2CC2)c(C)c1, the Potency was inconclusive: 8.91 µM [activator, partial curve, poor fit]. With CCn1c(SCC(=O)Nc2ccc(N(C)C)cc2)nnc1-c1ccco1 the “activity change, negative = inhibition” value was inactive: 9.54% [at 46.1 µM]. With O=S(=O)(C/C(=C/CO)S(=O)(=O)c1ccccc1)c1ccccc1 the Potency was active: 1.83 µM. With O=C(/C=C/c1ccccc1)Nc1ccc2c(c1)OCCO2 the Potency was inconclusive: 0.708 µM [inhibitor, full curve, poor fit]. In the case of O=C(Nc1cccc(Cl)c1)Nc1ccc(Br)cc1F, the Potency is reported as inconclusive: 25.9 µM [inhibitor, single point]. For CCCCNS(=O)(=O)c1ccc2nc(SCC(=O)Nc3cccc(F)c3)[nH]c2c1, the “activity change, negative = inhibition” value was inactive: -5.9%. With O=C(CN1C(=O)NC2(CCCc3ccccc32)C1=O)Nc1cc(F)ccc1F (stereo not given) the Potency was inconclusive: 1.26 µM [activator, single point]. With Cc1cccc(C)c1NC(=O)CSc1nc(-c2ccco2)cc(C(F)(F)F)n1 the Potency was inconclusive: 23.1 µM [inhibitor, single point]. With COc1ccc2cc3cc(C(=O)NCc4ccccc4OC)oc3nc2c1 the “activity change, negative = inhibition” value was inactive: 1.26% [at 46.1 µM]. In the case of CCCn1c(NCc2cccc(OC)c2O)nc2ccccc21, the Potency is reported as inconclusive: 1.26 µM [inhibitor, single point]. In the case of CC1CCN(S(=O)(=O)N2CCCC(C(=O)NCc3ccc(F)cc3)C2)CC1 (stereo not given), the “activity change, negative = inhibition” value is reported as inactive: -5.6% [at 46.1 µM]. In the case of Nc1cc(C(=O)OCC(=O)NCc2ccco2)ccc1Cl, the Potency is reported as inconclusive: 35.5 µM [activator, partial curve, poor fit]. In the case of CN(C)c1ccc(C2C=C(c3ccc(Cl)cc3OC(F)F)Nc3ncnn32)cc1 (stereo not given), the Potency is reported as inconclusive: 12.6 µM [inhibitor, single point]. In the case of CCCCCCC(=O)NNC(=O)c1c(O)c2ccccc2n(CC)c1=O, the Potency is reported as inconclusive: 14.1 µM [inhibitor, single point]. With S=C(NCC1CCCO1)N1CCN(c2nc(-c3ccccc3)cs2)CC1 (stereo not given) the Potency was inconclusive: 11.2 µM [inhibitor, partial curve, poor fit]. In the case of Cc1cccc(N=C(N2CCOCC2)P(=O)(N2CCOCC2)N2CCOCC2)c1, the “activity change, negative = inhibition” value is reported as inactive: -6.46%. With C[N+](C)(CCCCCC[N+](C)(C)CCCN1C(=O)c2cccc3cccc(c23)C1=O)CCCN1C(=O)c2cccc3cccc(c23)C1=O the Potency was active: 5.01 µM. With CCN(C(C)=O)c1ccc(Oc2nc(OC)cc(OC)n2)cc1 the “activity change, negative = inhibition” value was inactive: 10.5% [at 46.1 µM]. With Cc1cccc(NC(=O)c2ccc(NCCO)c([N+](=O)[O-])c2)n1 the Potency was inconclusive: 3.55 µM [activator, full curve, poor fit]. With Cc1ccnc(NC(=O)c2cc3c(=O)oc4ccc(C)cc4c3s2)c1 the “activity change, negative = inhibition” value was inactive: 16.7% [at 46.1 µM]. For COc1cccc(N2CCN(S(=O)(=O)c3cccc4cccnc34)CC2)c1, the Potency was inconclusive: 22.4 µM [inhibitor, partial curve, poor fit]. In the case of COc1ccc(S(=O)(=O)N2CCCCC2)cc1NC(=O)Cc1sc(C)nc1-c1ccc(F)cc1, the Potency is reported as inconclusive: 35.5 µM [inhibitor, single point]. With COc1cc2c(cc1OC)[C@@H]1O[C@](CCCCN3C(=O)c4ccccc4C3=O)(C2)OC2=C1C(=O)OC1(CCCCC1)C2 the Potency was inconclusive: 0.0007 µM [activator]. For Cc1ccc(C(=O)COC(=O)CN2C(=O)C3C4CCC(C4)C3C2=O)cc1[N+](=O)[O-] (stereo not given), the “activity change, negative = inhibition” value was inactive: -0.25%. In the case of CCOc1ccc2nc(SCC(=O)NCc3ccccc3)[nH]c2c1, the “activity change, negative = inhibition” value is reported as inactive: -5.46%. With O=C(Oc1ccc2c(c1)OCC2=O)c1ccc(Cl)cc1 the “activity change, negative = inhibition” value was inactive: -1.03% [at 46.1 µM]. For Cc1ccccc1OCCCCc1c(C)n[nH]c1C, the Potency was inconclusive: 25.9 µM [inhibitor, partial curve]. For Cn1nc(C(F)(F)F)c(/C=N/OC(=O)c2ccccc2)c1SCc1ccc(Cl)cc1, the Potency was inconclusive: 29.1 µM [inhibitor, single point]. For CC(C)C(c1nnnn1C1CCCCC1)N1CCCc2ccccc21 (stereo not given), the Potency was inconclusive: 14.1 µM [inhibitor, partial curve, poor fit]. With C(=N\Nc1nc2ccccc2[nH]1)/c1ccncc1 the Potency was inconclusive: 10 µM [activator, single point]. With Oc1c(Cl)cc(Oc2cc(Cl)c(O)c(CN3CCOCC3)c2)cc1CN1CCOCC1 the Potency was inconclusive: 11.2 µM [inhibitor, partial curve, poor fit]. With O=C(Nc1ccc(Cl)c(C(F)(F)F)c1)C(Cc1ccccc1)NS(=O)(=O)c1ccc(Br)s1 (stereo not given) the “activity change, negative = inhibition” value was inactive: -2.78% [at 46.1 µM].
